# Results taken from patent publication US12435083B2, “Cyclopropyl-(hetero)aryl-substituted ethylsulphonyl-pyridine derivatives” (BOEHRINGER INGELHEIM VETMEDICA GMBH, priority 2021, dated 2025).
# Some results were stated once for a whole list of compounds, not compound by compound. For at least one compound, name, drawing or mass did not settle the structure.
# Assays:
# Myzus persicae = experiment: Insecticidal test on Myzus persicae (foliar application on potted Chinese cabbage); settings: 500 ppm, 6 days after application
# Text: Example 14: Insecticidal Test on Myzus persicae
# The compounds of formula (I) of the present invention or salts thereof were separately dispersed in water and diluted to 500 ppm. Chinese cabbage plants were planted in plastic pots (diameter: 8 cm, height: 8 cm). Aphids (Myzus persicae) were propagated on the plants and then the number of surviving aphids was counted. The dispersion was applied to the foliage of the potted plants. After the plants were air dried, these were kept in a greenhouse. 6 days after the application, the number of the alive insects was counted on the plants. The control rate was calculated according to the following formula and the control efficacy was evaluated according to the following criteria. Control rate (%)=100−{(T×Ca)/(Ta×C)}×100 • Ta: the number of alive insects before the foliar application in a treated plot • T: the number of alive insects after the foliar application in a treated plot • Ca: the number of alive insects before the foliar application in an untreated plot • C: the number of alive insects after the foliar application in an untreated plot • A: the control rate is 100% • B: the control rate is 90 to 99% • C: the control rate is 80 to 89% • D: the control rate is 50 to 79%
# [1] = test system: Spodoptera litura 2nd-instar larvae; experiment: Insecticidal test on Spodoptera litura (cabbage leaf dip); settings: 500 ppm, 8 days after inoculation
# Experimental: Example 11: Insecticidal Test on Spodoptera litura
# The compounds of formula (I) of the present invention or salts thereof were separately dispersed in water and diluted to 500 ppm. Cabbage leaves were dipped in the dispersion for about 30 seconds. After air dried, the leaves were placed in a plastic Petri dish with a diameter of 9 cm and inoculated with ten 2nd-instar larvae of Spodoptera litura, after which the dish was closed and then allowed to stand in a room at 25° C. 8 days after the inoculation, the numbers of the dead and alive insects were counted. The corrected mortality rate was calculated according to the following formula and the insecticidal activity was evaluated according to the following criteria. Corrected mortality rate (%)=100×(Survival rate in an untreated plot−Survival rate in a treated plot)/Survival rate in an untreated plot • A: the corrected mortality rate is 100% • B: the corrected mortality rate is 90 to 99% • C: the corrected mortality rate is 80 to 89% • D: the corrected mortality rate is 50 to 79%
# Plutella xylostella = experiment: Insecticidal test on Plutella xylostella (Chinese cabbage seedling dip); settings: 500 ppm, 6 days after dip treatment
# Experimental: Example 12: Insecticidal Test on Plutella xylostella
# The compounds of formula (I) of the present invention or salts thereof were separately dispersed in water and diluted to 500 ppm. Ten adults of Plutella xylostella were released onto Chinese cabbage seedlings and allowed to lay eggs thereon. 2 days after the release of the adults, the seedling was dipped in the dispersion for about 30 seconds. After air dried, the seedling was kept in a room at 25° C. 6 days after the dip treatment, the numbers of the dead and alive insects were counted. The corrected mortality rate was calculated according to the following formula and the insecticidal activity was evaluated according to the following criteria. Corrected mortality rate (%)=100×(Survival rate in an untreated plot−Survival rate in a treated plot)/Survival rate in an untreated plot • A: the corrected mortality rate is 100% • B: the corrected mortality rate is 90 to 99% • C: the corrected mortality rate is 80 to 89% • D: the corrected mortality rate is 50 to 79%
# [2] = test system: Laodelphax striatellus 3rd-instar nymphs; experiment: Insecticidal test on Laodelphax striatellus (rice seedling dip); settings: 500 ppm, 8 days after inoculation
# Experimental: Example 13: Insecticidal Test on Laodelphax striatellus
# The compounds of formula (I) of the present invention or salts thereof were separately dispersed in water and diluted to 500 ppm. Rice plant seedlings were dipped in the dispersion for about 30 seconds. After air dried, the seedlings were put into a separate glass test tube and inoculated with ten 3rd-instar nymphs of Laodelphax striatellus and then the glass test tube was kept in a room at 25° C. 8 days after the inoculation, the numbers of the dead and alive insects were counted. The corrected mortality rate was calculated according to the following formula and the insecticidal activity was evaluated according to the following criteria. Corrected mortality rate (%)=100×(Survival rate in an untreated plot−Survival rate in a treated plot)/Survival rate in an untreated plot • A: the corrected mortality rate is 100% • B: the corrected mortality rate is 90 to 99% • C: the corrected mortality rate is 80 to 89% • D: the corrected mortality rate is 50 to 79%
SMILES,"control efficacy level (control rate), Myzus persicae (Myzus persicae)","activity level (corrected mortality rate), Spodoptera litura [1]","activity level (corrected mortality rate), Plutella xylostella (Plutella xylostella)","activity level (corrected mortality rate), Laodelphax striatellus [2]"
CCS(=O)(=O)c1cc(-c2ccc(C3CC3)cn2)cnc1-c1nc2cc(C(F)(F)C(F)(F)F)nnc2n1C [compound 5],A (the control rate is 100%),A (the corrected mortality rate is 100%),A (the corrected mortality rate is 100%),A (the corrected mortality rate is 100%)
CCS(=O)(=O)c1cc(-c2ccc(C3CC3)nc2)cnc1-c1nc2cc(C(F)(F)F)cn(CC(F)F)c-2c1F [compound 69],A (the control rate is 100%),A (the corrected mortality rate is 100%),A (the corrected mortality rate is 100%),A (the corrected mortality rate is 100%)
CCS(=O)(=O)c1cc(-c2ccc(C3CC3)nc2)cnc1-c1nc2cc(C(F)(F)F)n(C3CC3)c(=O)c2n1C [compound 89],A (the control rate is 100%),A (the corrected mortality rate is 100%),A (the corrected mortality rate is 100%),A (the corrected mortality rate is 100%)
CCS(=O)(=O)c1cc(-c2ccc(C3(F)CC3)cc2)cnc1-c1nc2cc(C(F)(F)F)n(C3CC3)c(=O)c2n1C [compound 124],A (the control rate is 100%),A (the corrected mortality rate is 100%),A (the corrected mortality rate is 100%),A (the corrected mortality rate is 100%)
CCS(=O)(=O)c1cc(-c2ccc(C3(C#N)CC3)nc2)cnc1-c1nc2cc3c(cc2n1C)OC(F)(F)O3 [compound 131],A (the control rate is 100%),A (the corrected mortality rate is 100%),A (the corrected mortality rate is 100%),A (the corrected mortality rate is 100%)
CCS(=O)(=O)c1cc(-c2ccc(C3(C#N)CC3)nc2)cnc1-c1nc2cc(C(F)(F)F)n(C3CC3)c(=O)c2n1C [compound 133],A (the control rate is 100%),A (the corrected mortality rate is 100%),A (the corrected mortality rate is 100%),A (the corrected mortality rate is 100%)
CCS(=O)(=O)c1cc(-c2ccc(C3CC3(F)F)cc2)cnc1-c1nc2cc(C(F)(F)C(F)(F)F)nnc2n1C (centres unmarked) [compound 135],A (the control rate is 100%),A (the corrected mortality rate is 100%),A (the corrected mortality rate is 100%),A (the corrected mortality rate is 100%)
CCS(=O)(=O)c1cc(-c2cc(C3CC3)cnn2)cnc1-c1nc2cc(C(F)(F)C(F)(F)F)nnc2n1C [compound 141],A (the control rate is 100%),A (the corrected mortality rate is 100%),A (the corrected mortality rate is 100%),A (the corrected mortality rate is 100%)
CCS(=O)(=O)c1cc(-c2cc(C3CC3)nc(C)n2)cnc1-c1nc2cc(C(F)(F)C(F)(F)F)nnc2n1C [compound 142],A (the control rate is 100%),A (the corrected mortality rate is 100%),A (the corrected mortality rate is 100%),A (the corrected mortality rate is 100%)
CCS(=O)(=O)c1cc(-c2cnc(C3CC3)nn2)cnc1-c1nc2cc(C(F)(F)C(F)(F)F)nnc2n1C [compound 149],A (the control rate is 100%),A (the corrected mortality rate is 100%),A (the corrected mortality rate is 100%),A (the corrected mortality rate is 100%)
CCS(=O)(=O)c1cc(-c2ncc(C3CC3)nn2)cnc1-c1nc2cc(C(F)(F)C(F)(F)F)nnc2n1C [compound 150],A (the control rate is 100%),A (the corrected mortality rate is 100%),A (the corrected mortality rate is 100%),A (the corrected mortality rate is 100%)
CCS(=O)(=O)c1cc(-c2ccc(C3CC3C)cc2)cnc1-c1nc2cc(C(F)(F)C(F)(F)F)nnc2n1C (centres unmarked) [compound 157],A (the control rate is 100%),–,A (the corrected mortality rate is 100%),A (the corrected mortality rate is 100%)
CCS(=O)(=O)c1cc(-c2ccc(C3CC3(C)C)cc2)cnc1-c1nc2cc(C(F)(F)C(F)(F)F)cnc2n1C (centres unmarked) [compound 160],A (the control rate is 100%),A (the corrected mortality rate is 100%),A (the corrected mortality rate is 100%),A (the corrected mortality rate is 100%)
CCS(=O)(=O)c1cc(-c2ccc(C3CC3C)cc2)cnc1-c1nc2cc(C(F)(F)C(F)(F)F)cnc2n1C (centres unmarked) [compound 161],A (the control rate is 100%),A (the corrected mortality rate is 100%),A (the corrected mortality rate is 100%),A (the corrected mortality rate is 100%)
CCS(=O)(=O)c1cc(-c2ccc(C3(C)CC3)cc2)cnc1-c1nc2cc(C(F)(F)C(F)(F)F)cnc2n1C [compound 164],A (the control rate is 100%),–,A (the corrected mortality rate is 100%),A (the corrected mortality rate is 100%)
CCS(=O)(=O)c1cc(-c2cc(C3CC3)cnn2)cnc1-c1nc2cc(C(F)(F)C(F)(F)F)cnc2n1C [compound 167],A (the control rate is 100%),A (the corrected mortality rate is 100%),A (the corrected mortality rate is 100%),A (the corrected mortality rate is 100%)
CCS(=O)(=O)c1cc(-c2cnnc(C3CC3)c2)cnc1-c1nc2cc(C(F)(F)C(F)(F)F)nnc2n1C [compound 196],A (the control rate is 100%),–,A (the corrected mortality rate is 100%),A (the corrected mortality rate is 100%)
